Source: the supplement of paper PMC10849652
This is one part of the list.

Chains of the proteins cited; added tags and fusions are not shown. Lines headed by an entry give the natural chain unless they say otherwise; changes in a name come on top.
UniProt Q9H5J0: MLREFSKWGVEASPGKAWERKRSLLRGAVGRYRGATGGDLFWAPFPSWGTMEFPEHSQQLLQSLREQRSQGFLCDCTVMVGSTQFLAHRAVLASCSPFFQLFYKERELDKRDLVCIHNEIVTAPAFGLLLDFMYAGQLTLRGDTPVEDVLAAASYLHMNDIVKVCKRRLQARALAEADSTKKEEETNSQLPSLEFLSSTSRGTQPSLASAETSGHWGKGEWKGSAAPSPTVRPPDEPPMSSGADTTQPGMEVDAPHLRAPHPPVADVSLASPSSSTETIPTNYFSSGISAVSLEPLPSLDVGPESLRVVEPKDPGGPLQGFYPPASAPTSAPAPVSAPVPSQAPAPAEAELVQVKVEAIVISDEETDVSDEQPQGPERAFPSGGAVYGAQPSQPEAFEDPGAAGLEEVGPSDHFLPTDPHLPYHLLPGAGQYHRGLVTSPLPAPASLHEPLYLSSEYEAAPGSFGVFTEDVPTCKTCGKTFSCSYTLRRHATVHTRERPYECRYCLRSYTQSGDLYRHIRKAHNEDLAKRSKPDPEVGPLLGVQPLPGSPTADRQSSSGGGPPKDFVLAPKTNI
UniProt Q9NYG2: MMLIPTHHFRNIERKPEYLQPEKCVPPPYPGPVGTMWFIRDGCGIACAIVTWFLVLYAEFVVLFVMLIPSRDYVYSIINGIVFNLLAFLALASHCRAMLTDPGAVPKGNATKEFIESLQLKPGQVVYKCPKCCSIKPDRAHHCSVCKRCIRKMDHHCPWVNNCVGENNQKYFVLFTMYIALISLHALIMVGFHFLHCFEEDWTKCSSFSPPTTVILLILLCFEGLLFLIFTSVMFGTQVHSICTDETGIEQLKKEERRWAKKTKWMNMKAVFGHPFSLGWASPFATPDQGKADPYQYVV
UniProt Q9HAV4: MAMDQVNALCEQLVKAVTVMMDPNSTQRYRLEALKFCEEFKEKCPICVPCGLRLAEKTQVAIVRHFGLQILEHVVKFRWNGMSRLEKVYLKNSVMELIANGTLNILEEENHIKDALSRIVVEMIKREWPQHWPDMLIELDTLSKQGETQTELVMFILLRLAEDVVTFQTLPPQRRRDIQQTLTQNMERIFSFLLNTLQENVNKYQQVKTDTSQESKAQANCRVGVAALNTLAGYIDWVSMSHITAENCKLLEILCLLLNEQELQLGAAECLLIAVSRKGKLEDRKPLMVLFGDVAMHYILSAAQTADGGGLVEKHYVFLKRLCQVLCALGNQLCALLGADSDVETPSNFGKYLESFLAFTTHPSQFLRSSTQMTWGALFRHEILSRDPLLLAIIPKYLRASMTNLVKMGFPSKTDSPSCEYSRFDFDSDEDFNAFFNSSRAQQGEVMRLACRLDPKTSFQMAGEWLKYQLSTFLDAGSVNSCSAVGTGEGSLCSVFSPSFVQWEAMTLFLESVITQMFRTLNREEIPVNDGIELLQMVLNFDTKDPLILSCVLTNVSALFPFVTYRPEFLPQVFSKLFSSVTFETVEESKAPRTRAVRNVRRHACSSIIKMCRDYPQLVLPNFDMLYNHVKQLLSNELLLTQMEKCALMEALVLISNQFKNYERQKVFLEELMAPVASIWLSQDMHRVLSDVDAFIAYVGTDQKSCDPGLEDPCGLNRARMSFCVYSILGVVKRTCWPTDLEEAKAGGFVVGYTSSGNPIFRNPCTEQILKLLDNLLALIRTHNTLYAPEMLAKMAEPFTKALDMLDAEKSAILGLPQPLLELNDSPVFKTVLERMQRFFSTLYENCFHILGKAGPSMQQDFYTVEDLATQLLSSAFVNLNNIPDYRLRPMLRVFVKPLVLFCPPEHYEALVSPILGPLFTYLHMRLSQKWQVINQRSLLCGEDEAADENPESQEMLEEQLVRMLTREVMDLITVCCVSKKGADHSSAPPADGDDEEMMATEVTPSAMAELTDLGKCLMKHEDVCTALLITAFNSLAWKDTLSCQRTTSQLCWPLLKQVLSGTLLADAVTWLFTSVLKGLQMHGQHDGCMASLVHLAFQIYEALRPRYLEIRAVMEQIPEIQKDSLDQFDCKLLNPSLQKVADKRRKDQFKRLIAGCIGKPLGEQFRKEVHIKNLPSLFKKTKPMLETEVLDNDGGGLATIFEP
UniProt Q96GY0: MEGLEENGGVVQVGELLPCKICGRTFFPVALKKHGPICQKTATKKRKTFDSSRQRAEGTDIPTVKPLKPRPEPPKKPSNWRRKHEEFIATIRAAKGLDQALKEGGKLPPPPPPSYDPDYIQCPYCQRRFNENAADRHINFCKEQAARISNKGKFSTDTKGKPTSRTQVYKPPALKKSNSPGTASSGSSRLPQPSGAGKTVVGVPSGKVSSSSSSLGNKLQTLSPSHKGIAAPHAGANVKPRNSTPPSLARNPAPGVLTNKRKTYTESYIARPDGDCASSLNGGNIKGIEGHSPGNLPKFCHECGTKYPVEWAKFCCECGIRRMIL
UniProt Q8N5A5: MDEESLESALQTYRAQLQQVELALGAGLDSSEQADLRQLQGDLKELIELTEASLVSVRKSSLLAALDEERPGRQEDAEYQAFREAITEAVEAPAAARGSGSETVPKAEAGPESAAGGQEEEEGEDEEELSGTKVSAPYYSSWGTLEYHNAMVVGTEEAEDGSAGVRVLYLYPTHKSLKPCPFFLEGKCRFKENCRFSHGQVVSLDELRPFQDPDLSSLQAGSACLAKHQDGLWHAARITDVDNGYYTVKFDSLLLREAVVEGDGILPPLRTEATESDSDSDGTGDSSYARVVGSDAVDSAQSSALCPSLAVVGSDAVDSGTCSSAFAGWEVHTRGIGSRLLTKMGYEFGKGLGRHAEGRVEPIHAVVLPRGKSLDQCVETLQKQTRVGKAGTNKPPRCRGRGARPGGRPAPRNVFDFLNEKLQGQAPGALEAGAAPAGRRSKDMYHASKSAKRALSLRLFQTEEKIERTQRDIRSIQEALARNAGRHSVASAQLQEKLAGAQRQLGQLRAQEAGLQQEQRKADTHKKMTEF
UniProt P62258: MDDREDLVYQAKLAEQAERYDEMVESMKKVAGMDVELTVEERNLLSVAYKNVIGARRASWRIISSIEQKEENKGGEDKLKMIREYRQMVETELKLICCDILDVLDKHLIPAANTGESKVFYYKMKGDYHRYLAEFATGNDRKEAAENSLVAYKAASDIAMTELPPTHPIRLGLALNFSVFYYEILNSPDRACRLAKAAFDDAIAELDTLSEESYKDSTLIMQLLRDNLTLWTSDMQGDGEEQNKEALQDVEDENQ
UniProt Q9C0E2: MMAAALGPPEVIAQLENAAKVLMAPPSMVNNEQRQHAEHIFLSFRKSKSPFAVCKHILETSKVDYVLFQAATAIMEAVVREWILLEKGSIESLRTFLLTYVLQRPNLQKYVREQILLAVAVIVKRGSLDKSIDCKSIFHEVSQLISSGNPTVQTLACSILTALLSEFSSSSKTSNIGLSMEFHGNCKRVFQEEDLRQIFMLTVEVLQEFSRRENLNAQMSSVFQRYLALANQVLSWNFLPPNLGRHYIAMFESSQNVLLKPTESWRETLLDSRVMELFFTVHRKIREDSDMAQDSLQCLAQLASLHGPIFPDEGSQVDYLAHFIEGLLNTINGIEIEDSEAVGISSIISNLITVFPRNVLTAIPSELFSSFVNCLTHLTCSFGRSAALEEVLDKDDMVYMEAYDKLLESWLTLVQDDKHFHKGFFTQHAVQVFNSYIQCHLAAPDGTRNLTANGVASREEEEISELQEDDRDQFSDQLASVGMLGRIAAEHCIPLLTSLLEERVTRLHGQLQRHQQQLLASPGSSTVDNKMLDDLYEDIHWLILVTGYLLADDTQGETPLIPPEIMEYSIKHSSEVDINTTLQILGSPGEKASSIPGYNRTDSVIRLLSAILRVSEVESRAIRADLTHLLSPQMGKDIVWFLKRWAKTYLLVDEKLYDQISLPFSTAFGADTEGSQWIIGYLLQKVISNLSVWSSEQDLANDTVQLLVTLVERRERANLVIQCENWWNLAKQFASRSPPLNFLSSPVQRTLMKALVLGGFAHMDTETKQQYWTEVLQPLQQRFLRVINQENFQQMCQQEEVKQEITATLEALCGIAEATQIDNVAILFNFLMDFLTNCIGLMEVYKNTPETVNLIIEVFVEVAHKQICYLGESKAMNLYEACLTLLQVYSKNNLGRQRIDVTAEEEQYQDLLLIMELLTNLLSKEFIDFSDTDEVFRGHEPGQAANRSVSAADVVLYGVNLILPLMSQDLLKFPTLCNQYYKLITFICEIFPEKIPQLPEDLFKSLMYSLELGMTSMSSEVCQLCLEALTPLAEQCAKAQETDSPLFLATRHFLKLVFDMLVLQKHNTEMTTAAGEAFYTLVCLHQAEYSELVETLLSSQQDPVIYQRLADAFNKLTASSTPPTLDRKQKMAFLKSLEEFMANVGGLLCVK
UniProt O95159: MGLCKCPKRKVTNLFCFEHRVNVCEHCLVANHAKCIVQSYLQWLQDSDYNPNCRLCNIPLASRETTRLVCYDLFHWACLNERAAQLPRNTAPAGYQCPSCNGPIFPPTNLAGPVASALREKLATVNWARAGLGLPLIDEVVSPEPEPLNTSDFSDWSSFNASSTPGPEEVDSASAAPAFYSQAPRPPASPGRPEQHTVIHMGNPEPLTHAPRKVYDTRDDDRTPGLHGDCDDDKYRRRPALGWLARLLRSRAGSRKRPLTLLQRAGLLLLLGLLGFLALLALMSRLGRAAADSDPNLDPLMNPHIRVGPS
UniProt Q9UGR2: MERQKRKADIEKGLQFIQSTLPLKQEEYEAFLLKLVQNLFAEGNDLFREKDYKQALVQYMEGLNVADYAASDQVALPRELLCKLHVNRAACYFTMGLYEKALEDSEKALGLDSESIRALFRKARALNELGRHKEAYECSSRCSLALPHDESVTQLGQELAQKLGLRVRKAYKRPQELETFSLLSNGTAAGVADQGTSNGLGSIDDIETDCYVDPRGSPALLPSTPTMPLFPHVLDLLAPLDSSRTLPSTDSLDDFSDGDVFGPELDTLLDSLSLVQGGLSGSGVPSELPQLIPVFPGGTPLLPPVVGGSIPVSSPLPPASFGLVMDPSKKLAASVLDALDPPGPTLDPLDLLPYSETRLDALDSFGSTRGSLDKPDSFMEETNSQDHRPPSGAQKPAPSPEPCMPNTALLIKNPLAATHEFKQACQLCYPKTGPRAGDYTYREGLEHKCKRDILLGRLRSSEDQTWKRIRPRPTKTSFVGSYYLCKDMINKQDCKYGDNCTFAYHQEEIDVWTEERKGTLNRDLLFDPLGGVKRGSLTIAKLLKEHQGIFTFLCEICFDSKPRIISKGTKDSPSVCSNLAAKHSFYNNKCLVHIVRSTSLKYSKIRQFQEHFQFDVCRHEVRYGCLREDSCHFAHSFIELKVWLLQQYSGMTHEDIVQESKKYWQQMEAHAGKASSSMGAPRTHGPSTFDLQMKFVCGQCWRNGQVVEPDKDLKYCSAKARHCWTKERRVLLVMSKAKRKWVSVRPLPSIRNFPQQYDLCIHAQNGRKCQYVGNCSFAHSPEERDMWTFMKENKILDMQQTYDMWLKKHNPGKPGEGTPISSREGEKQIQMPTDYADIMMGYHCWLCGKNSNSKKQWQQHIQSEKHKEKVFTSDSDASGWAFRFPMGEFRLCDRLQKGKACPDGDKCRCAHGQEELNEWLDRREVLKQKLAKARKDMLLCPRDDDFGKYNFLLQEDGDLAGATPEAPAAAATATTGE
UniProt P54577: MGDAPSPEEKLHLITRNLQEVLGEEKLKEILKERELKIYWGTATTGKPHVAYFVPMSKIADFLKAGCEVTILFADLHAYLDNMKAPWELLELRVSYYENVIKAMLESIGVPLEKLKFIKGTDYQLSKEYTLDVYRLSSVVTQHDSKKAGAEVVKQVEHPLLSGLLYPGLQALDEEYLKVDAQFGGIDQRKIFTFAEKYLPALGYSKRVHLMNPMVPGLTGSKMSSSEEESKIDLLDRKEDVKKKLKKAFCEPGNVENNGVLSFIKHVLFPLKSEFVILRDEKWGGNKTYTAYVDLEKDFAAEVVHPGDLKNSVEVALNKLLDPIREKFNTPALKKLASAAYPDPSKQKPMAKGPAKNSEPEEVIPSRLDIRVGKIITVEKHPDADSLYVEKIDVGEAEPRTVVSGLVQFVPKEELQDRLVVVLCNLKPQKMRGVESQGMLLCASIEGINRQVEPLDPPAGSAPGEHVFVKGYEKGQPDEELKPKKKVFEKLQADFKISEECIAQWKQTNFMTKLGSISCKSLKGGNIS
UniProt P16989, whole entry, looked up: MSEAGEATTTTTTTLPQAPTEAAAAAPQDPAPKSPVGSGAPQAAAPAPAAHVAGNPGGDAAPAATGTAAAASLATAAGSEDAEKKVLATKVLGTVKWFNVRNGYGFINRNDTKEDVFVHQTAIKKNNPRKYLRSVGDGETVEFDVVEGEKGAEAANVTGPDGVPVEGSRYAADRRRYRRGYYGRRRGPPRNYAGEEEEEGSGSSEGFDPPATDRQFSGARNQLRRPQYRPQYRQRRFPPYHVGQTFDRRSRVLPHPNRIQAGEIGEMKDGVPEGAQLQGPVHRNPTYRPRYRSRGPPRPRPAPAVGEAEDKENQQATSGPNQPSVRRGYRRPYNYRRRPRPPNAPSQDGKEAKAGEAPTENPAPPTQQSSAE

Assays:
Test in all cases: log2 fold change, soluble protein after heating vs DMSO (PISA); higher = thermal stabilisation; K562 lysate, 10 uM; active = over 0.2 and 3.5 SD of the protein, either way, in both replicates (recomputed)
lapatinib = compound: CS(=O)(=O)CCNCc1ccc(-c2ccc3ncnc(Nc4ccc(OCc5cccc(F)c5)c(Cl)c4)c3c2)o1 [lapatinib]
In short: (§1)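 To prepare the extract, K562 pellets were dounce-homogenised in PBS pH 7.4 with 1 mM MgCl2, giving crude material at 1 mg/mL protein. This was treated with 10 μM compound for 30 min, then heated in aliquots for 3 min over 48°C-58°C before pooling and addition of NP-40 to 0.5% at 4°C. Centrifugation at 21,000xg for 90 min left soluble protein in the supernatant, which TMTpro 16plex LC-MS/MS quantified with equalised channel sums. Results are log-two fold changes in thermal stability compared with solvent controls, from duplicates.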

pictilisib = compound: CS(=O)(=O)N1CCN(Cc2cc3nc(-c4cccc5[nH]ncc45)nc(N4CCOCC4)c3s2)CC1 [pictilisib]
In short: as §1

crizotinib = compound: C[C@@H](Oc1cc(-c2cnn(C3CCNCC3)c2)cnc1N)c1c(Cl)ccc(F)c1Cl [crizotinib]
In short: as §1

[1] = compound: C[C@H](C1=CC=C(C=C1)C(=O)NC2=C3C=CNC3=NC=C2)N
In short: as §1

duvelisib = compound: C[C@H](Nc1ncnc2nc[nH]c12)c1cc2cccc(Cl)c2c(=O)n1-c1ccccc1 [duvelisib]
In short: as §1

gandotinib = compound: Cc1cc(Nc2cc(CN3CCOCC3)c3nc(C)c(Cc4ccc(Cl)cc4F)n3n2)n[nH]1 [gandotinib]
In short: as §1

tozasertib = compound: Cc1cc(Nc2cc(N3CCN(C)CC3)nc(Sc3ccc(NC(=O)C4CC4)cc3)n2)n[nH]1 [tozasertib]
In short: as §1

doramapimod = compound: Cc1ccc(-n2nc(C(C)(C)C)cc2NC(=O)Nc2ccc(OCCN3CCOCC3)c3ccccc23)cc1 [doramapimod]
In short: as §1

bafetinib = compound: Cc1ccc(NC(=O)c2ccc(CN3CC[C@H](N(C)C)C3)c(C(F)(F)F)c2)cc1Nc1nccc(-c2cncnc2)n1 [bafetinib]
In short: as §1

[2] = compound: Cc1cccc(CC(=O)N2CCc3c2ccc(-c2cn(C)c4ncnc(N)c24)c3F)n1
In short: as §1

Measured: log2 fold change

ZBTB3 (UniProt Q9H5J0)
inactive: lapatinib 0.017 | pictilisib -0.247 | crizotinib -0.004 | [1] 0.102 | duvelisib -0.053 | gandotinib -0.058 | tozasertib 0.045 | doramapimod 0.057 | bafetinib 0.125 | [2] 0.24

ZDHHC3 isoform 2 (UniProt Q9NYG2)
inactive: lapatinib -0.05 | pictilisib -0.013 | crizotinib -0.108 | [1] -0.129 | duvelisib 0.12 | gandotinib 0.114 | tozasertib -0.03 | doramapimod 0.022 | bafetinib -0.112 | [2] 0.192

XPO5 (UniProt Q9HAV4)
inactive: lapatinib -0.042 | pictilisib 0 | crizotinib -0.085 | [1] -0.041 | duvelisib -0.017 | gandotinib -0.14 | tozasertib 0.013 | doramapimod -0.008 | bafetinib -0.006 | [2] 0.049

YIPF5 isoform 3 (UniProt Q969M3)
inactive: lapatinib 0.016 | pictilisib 0.029 | crizotinib -0.063 | [1] -0.048 | duvelisib 0.035 | gandotinib 0.006 | tozasertib -0.038 | doramapimod 0.039 | bafetinib -0.014 | [2] 0.156

ZFYVE16 (UniProt Q7Z3T8)
inactive: lapatinib 0.019 | pictilisib 0.004 | crizotinib -0.004 | [1] -0.084 | duvelisib 0.001 | gandotinib 0.016 | tozasertib -0.012 | doramapimod -0.004 | bafetinib -0.027 | [2] 0.078

ZFP91 (UniProt Q96JP5)
inactive: lapatinib 0.013 | pictilisib 0.045 | crizotinib -0.068 | [1] 0.109 | duvelisib 0.034 | gandotinib -0.059 | tozasertib -0.005 | doramapimod 0.017 | bafetinib -0.067 | [2] -0.079

ZC2HC1A (UniProt Q96GY0)
inactive: lapatinib 0.004 | pictilisib 0.056 | crizotinib -0.009 | [1] -0.082 | duvelisib 0 | gandotinib 0.053 | tozasertib 0.007 | doramapimod -0.021 | bafetinib 0.052 | [2] 0.103

ZGPAT (UniProt Q8N5A5)
inactive: lapatinib 0.011 | pictilisib 0.065 | crizotinib -0.044 | [1] -0.049 | duvelisib -0.054 | gandotinib 0.008 | tozasertib 0.07 | doramapimod 0.051 | bafetinib 0 | [2] -0.028

YWHAE (UniProt P62258)
inactive: lapatinib 0.022 | pictilisib 0.002 | crizotinib 0.004 | [1] 0.001 | duvelisib 0.016 | gandotinib 0.01 | tozasertib 0.002 | doramapimod 0.02 | bafetinib -0.002 | [2] -0.018

YWHAZ (UniProt E7ESK7)
inactive: lapatinib 0.03 | pictilisib -0.092 | crizotinib -0.167 | [1] -0.019 | duvelisib 0.067 | gandotinib 0.055 | tozasertib 0.129 | doramapimod 0.139 | bafetinib 0.169 | [2] -0.017

XPO4 (UniProt Q9C0E2)
inactive: lapatinib -0.028 | pictilisib -0.02 | crizotinib -0.034 | [1] -0.068 | duvelisib 0.017 | gandotinib -0.023 | tozasertib 0 | doramapimod 0.006 | bafetinib -0.033 | [2] 0.071

ZFPL1 (UniProt O95159)
inactive: lapatinib -0.043 | pictilisib -0.096 | crizotinib -0.004 | [1] 0.115 | duvelisib 0.023 | gandotinib -0.06 | tozasertib 0.05 | doramapimod 0.002 | bafetinib 0.003 | [2] -0.001

ZC3H7B (UniProt Q9UGR2)
inactive: lapatinib 0.02 | pictilisib -0.019 | crizotinib -0.082 | [1] -0.012 | duvelisib 0.004 | gandotinib -0.144 | tozasertib 0.031 | doramapimod 0.041 | bafetinib -0.182 | [2] 0.046

YARS (UniProt P54577)
inactive: lapatinib -0.029 | pictilisib 0.01 | crizotinib -0.025 | [1] -0.014 | duvelisib -0.021 | gandotinib -0.057 | tozasertib -0.023 | doramapimod -0.02 | bafetinib 0.016 | [2] -0.002

YBX3 isoform 2 (UniProt P16989)
inactive: lapatinib 0.103 | pictilisib 0.153 | crizotinib 0.061 | [1] 0.074 | duvelisib 0.052 | gandotinib 0.033 | tozasertib 0.005 | doramapimod -0.008 | bafetinib -0.027 | [2] 0.233

2 neighbouring entries already listed:
YIPF5 isoform 3 (UniProt Q969M3)
inactive: lapatinib 0.016 | pictilisib 0.029 | crizotinib -0.063 | [1] -0.048 | duvelisib 0.035 | gandotinib 0.006 | tozasertib -0.038 | doramapimod 0.039 | bafetinib -0.014 | [2] 0.156

ZFYVE16 (UniProt Q7Z3T8)
inactive: lapatinib 0.019 | pictilisib 0.004 | crizotinib -0.004 | [1] -0.084 | duvelisib 0.001 | gandotinib 0.016 | tozasertib -0.012 | doramapimod -0.004 | bafetinib -0.027 | [2] 0.078
